The exact form of at least one protein or probe is not confirmed.
Tested on: Msh2(HA)-Msh6(3MBD) (Saccharomyces cerevisiae)
Assay: EMSA
Details: 1 nM DNA, increased affinity for +8 loop; EMSA: 20 mM HEPES pH 7.5, 100 mM NaCl, 1 mM DTT, 40 ug/ml BSA, 2 mM MgCl2, RT; recombinant protein; protein details: HA tag in Msh2 between residues 644 and 645; label: radiolabel

Sequence: GGGTCAACGTGGGCAAAGATGTCCTAGCAAGTCAGAATTCGGTAGCGTG / CACGCTACCGAATTCTGACTTGCTAGGTGTGTGTGACATCTTTGCCCACGTTGACCC [+8 loop LS2/LS8]
- binding result: binds

Reference: paper PMC4742970 (Nature Communications, 2016)
